Measured values as given in PubChem BioAssay (EPA / NIEHS).
Several values for one entry are separate records, joined by “and”; a condition that tells them apart may be missing. Equal entries are not always repeated. Inconclusive results, whose numbers are uncertain, are shown with a selection of clear calls. For some of these results: Potencies beside an inconclusive call are fits to weak or partial responses and may not hold up. Some structures have more than one record in an assay (separate samples or runs), and their calls can disagree. Activity calls are given as the source filed them. The calls were made as follows: active = hit-call score of the fitted dose curve at least 0.9, where 1 is the maximum; inconclusive = response in the unintended direction; inactive = score below 0.9.

Protein sequences, listed by entry. Tags and fused reporters are not part of them. Lines headed by an entry give the natural chain unless they say otherwise; changes in a name come on top.
UniProt P33535, whole entry, looked up: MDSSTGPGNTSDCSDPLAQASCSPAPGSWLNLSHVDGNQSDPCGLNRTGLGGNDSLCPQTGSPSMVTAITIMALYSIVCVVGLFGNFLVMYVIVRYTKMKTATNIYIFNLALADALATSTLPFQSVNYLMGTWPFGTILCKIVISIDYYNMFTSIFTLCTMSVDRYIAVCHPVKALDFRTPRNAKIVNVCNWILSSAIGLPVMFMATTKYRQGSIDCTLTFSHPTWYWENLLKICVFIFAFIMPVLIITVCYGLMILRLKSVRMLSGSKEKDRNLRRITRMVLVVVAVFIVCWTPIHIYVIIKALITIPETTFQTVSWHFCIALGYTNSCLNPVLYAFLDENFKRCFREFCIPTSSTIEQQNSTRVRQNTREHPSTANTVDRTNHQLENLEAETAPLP
UniProt Q12809: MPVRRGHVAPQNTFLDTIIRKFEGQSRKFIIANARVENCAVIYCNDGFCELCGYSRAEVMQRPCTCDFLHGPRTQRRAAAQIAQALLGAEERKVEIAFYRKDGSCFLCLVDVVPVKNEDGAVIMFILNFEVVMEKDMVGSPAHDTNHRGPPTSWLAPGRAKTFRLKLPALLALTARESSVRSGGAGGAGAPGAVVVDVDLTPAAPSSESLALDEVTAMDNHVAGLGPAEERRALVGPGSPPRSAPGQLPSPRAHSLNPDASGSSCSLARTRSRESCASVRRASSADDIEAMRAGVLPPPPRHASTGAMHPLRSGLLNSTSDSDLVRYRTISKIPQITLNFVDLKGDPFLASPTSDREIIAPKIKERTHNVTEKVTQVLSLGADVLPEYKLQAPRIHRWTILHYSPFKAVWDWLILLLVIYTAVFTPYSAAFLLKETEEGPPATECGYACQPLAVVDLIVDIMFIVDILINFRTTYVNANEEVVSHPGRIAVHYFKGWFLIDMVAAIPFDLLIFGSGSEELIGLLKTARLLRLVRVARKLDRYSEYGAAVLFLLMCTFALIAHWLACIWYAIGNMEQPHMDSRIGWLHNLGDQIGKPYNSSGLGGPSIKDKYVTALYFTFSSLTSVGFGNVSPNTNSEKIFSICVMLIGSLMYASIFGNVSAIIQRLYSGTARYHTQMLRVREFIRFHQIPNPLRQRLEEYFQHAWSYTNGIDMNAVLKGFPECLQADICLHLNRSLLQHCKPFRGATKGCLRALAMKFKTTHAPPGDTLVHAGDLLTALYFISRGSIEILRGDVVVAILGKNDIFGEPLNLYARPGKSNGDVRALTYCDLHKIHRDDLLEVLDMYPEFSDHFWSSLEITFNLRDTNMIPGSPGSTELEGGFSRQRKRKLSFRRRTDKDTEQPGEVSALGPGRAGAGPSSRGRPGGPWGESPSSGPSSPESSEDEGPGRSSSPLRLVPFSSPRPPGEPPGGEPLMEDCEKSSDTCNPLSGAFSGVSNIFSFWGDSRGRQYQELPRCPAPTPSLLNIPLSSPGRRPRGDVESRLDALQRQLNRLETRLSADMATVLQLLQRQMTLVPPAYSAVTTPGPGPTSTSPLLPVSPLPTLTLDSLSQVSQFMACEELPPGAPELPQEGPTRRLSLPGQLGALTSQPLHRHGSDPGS
UniProt Q01717: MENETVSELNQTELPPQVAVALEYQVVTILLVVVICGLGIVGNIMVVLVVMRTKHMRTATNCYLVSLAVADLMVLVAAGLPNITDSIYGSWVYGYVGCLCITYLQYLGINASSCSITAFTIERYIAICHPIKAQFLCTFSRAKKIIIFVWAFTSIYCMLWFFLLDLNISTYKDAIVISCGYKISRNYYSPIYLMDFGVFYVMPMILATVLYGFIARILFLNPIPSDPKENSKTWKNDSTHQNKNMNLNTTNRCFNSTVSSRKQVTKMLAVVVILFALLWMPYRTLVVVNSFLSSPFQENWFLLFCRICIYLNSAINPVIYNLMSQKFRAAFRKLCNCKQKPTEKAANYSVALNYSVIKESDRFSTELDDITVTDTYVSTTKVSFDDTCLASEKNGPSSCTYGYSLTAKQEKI
UniProt P19490: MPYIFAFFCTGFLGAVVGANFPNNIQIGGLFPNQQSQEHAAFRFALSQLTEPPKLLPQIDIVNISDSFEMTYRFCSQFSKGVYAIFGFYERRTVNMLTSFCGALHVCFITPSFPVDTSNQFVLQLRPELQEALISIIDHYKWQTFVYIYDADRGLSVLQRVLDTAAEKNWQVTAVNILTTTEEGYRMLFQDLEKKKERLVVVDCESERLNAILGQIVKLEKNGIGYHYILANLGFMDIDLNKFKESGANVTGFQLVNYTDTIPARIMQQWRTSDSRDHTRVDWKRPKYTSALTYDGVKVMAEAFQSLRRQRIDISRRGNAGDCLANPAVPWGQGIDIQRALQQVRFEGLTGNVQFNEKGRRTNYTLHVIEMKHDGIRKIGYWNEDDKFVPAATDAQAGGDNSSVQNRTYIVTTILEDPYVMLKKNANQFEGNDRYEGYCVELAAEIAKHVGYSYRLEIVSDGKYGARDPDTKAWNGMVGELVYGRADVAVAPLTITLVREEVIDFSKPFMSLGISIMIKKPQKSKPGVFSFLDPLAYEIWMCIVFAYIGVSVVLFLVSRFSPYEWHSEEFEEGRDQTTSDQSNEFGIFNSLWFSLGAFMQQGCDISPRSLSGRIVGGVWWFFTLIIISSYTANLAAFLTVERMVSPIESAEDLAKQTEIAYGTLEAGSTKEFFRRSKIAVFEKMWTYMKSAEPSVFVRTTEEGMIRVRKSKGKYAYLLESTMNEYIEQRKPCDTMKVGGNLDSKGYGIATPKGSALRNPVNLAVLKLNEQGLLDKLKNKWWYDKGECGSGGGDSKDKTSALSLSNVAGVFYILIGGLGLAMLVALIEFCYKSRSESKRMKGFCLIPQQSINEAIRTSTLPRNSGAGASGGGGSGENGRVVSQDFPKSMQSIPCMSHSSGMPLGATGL
UniProt P70606, whole entry, looked up: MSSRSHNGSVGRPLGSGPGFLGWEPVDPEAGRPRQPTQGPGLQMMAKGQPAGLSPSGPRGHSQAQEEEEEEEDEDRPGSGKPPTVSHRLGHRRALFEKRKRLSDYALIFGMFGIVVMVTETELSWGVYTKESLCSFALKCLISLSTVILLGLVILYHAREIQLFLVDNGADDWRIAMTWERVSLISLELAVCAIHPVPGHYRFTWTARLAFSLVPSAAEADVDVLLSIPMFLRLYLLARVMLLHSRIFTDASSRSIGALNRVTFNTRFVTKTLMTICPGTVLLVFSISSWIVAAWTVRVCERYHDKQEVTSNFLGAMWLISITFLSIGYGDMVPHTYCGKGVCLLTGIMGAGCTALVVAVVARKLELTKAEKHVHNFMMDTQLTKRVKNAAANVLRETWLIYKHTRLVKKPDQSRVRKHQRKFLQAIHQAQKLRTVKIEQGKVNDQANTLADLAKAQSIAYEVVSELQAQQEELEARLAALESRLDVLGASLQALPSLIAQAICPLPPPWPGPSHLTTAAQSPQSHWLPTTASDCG
UniProt P30536, whole entry, looked up: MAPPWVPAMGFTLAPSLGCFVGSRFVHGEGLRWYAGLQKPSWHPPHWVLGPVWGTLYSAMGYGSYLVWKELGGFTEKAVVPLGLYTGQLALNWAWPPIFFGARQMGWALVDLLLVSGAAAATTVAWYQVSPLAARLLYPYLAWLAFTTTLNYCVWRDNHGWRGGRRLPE
UniProt P10275: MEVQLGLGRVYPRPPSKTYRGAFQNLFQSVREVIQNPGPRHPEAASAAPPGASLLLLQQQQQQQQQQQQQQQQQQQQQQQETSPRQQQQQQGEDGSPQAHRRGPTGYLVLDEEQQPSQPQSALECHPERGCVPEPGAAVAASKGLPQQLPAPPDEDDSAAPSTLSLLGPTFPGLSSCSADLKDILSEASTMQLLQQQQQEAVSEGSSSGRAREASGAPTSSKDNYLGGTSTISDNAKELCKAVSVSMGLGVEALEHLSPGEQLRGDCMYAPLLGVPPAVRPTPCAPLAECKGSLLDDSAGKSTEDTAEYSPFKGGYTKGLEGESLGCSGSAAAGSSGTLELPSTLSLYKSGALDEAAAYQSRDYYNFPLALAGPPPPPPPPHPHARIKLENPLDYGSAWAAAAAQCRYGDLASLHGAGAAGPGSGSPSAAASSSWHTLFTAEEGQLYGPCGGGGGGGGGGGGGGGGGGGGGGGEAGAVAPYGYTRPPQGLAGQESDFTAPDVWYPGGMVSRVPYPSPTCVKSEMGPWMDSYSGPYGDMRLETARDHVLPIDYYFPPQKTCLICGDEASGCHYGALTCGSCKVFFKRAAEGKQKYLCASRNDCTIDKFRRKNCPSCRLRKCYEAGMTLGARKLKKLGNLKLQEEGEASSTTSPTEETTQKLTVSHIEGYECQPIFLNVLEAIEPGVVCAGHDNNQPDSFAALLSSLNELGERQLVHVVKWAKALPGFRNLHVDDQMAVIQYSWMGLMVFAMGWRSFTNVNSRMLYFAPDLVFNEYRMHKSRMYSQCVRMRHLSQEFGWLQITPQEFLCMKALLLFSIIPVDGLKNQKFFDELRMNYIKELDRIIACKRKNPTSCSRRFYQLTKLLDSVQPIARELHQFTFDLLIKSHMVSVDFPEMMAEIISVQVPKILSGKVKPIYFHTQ

How the values were obtained:
[1] = target: rat Opioid Receptor, Non-selective Binding, Oprm1 (gene 25601) (UniProt P33535); assay: NVS_GPCR_rOpiate_NonSelective: NovaScreen (NVS) G Protein-Coupled Receptor Assay for rat Opioid Receptor, Non-selective Binding (AID 2283318)
How it was run: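 Rat forebrain membranes, cell-free radioligand binding with filter-based scintillation counting, read 1.5 h after dosing. Primary screen in duplicate at 25 uM; actives retested in concentration series. Loss of signal versus DMSO baseline scored.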

[2] = NVS_IC_rCaBTZCHL: NovaScreen (NVS) Ion Channel Assay for Calcium Channel, Type L, Benzothiazepine Site (CaBTZCHL) (AID 2283337)
How it was run: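 Radioligand displacement at the benzothiazepine site using rat cortical membranes; bound label measured by filtration and scintillation counting 1.5 h after dosing. Single-point 25 uM in duplicate, then concentration series; DMSO baseline.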

[3] = target: Voltage-dependent N-type calcium channel subunit alpha-1B (Rattus norvegicus) (UniProt Q02294); assay: NVS_IC_rCaChN: NovaScreen (NVS) Ion Channel Assay for rat Calcium Channel, Type N (CaChN) (AID 2283317)
[4] = target: Voltage-gated inwardly rectifying potassium channel KCNH2 (Homo sapiens) (UniProt Q12809); assay: NVS_IC_hKhERGCh: NovaScreen (NVS) Ion Channel Assay for human Potassium Channel ERG (KhERGCh) (AID 2283333)
How it was run: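 Cell-free radioligand competition binding on hERG protein extracted from CHO cells, read by filter-based scintillation counting 0.75 h after dosing. Primary screen at 25 uM in duplicate, actives followed in concentration series. Signal loss fitted versus DMSO.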

[5] = target: rat Thyrotropin Releasing Hormone Receptor (TRH), Trhr (gene 25570) (UniProt Q01717); assay: NVS_GPCR_rTRH: NovaScreen (NVS) G Protein-Coupled Receptor Assay for rat Thyrotropin Releasing Hormone Receptor (TRH) (AID 2283329);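 also: hit means lower bound tracer signal versus DMSO baseline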
How it was run: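 Test compounds are screened at 25 uM in duplicate against radioligand binding in rat forebrain membranes, with active pairs followed up over a concentration range. Detection uses filter-based radiodetection after a 4 h exposure.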

[6] = target: rat Glutamate, AMPA Site (AMPA), Gria1 (gene 50592) (UniProt P19490); assay: NVS_LGIC_rAMPA: NovaScreen (NVS) Ligand-Gated Ion Channel Assay for rat Glutamate, AMPA Site (AMPA) (AID 2283324)
How it was run: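 Rat forebrain membranes; radioligand binding read 1 h after dosing by filtration and scintillation counting. Duplicate single-point screen at 25 uM, then concentration-response to 50 uM for threshold hits (e.g. 30% inhibition); loss of signal vs DMSO.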

[7] = target: Small conductance calcium-activated potassium channel protein 1 (Rattus norvegicus) (UniProt P70606); assay: NVS_IC_rKCaCh: NovaScreen (NVS) Ion Channel Assay for rat Potassium Channel, Ca2+ Act., VI (KCaCh) (AID 2283336)
How it was run: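 Radioligand binding to rat forebrain membranes, cell-free, read 1 hour after dosing by filter-based scintillation counting. Compounds first run in duplicate at 25 uM, actives then in concentration series; loss of signal vs DMSO indicates displacement.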

[8] = target: human Peripheral-type Benzodiazepine Receptor (PBR), TSPO (gene 706) (UniProt P30536); assay: NVS_MP_hPBR: NovaScreen (NVS) Membrane Protein Assay for human Peripheral-type Benzodiazepine Receptor (PBR) (AID 2283331);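 also: hits reduce radioligand binding relative to DMSO baseline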
How it was run: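 Scintillation counts of filter-bound radioligand served as read-out after 1 h chemical dosing of human colonic membrane preparations. Activity was scored as signal loss against DMSO; initial duplicates at 25 uM, confirmatory concentration series afterward.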

[9] = target: human Androgen Receptor (AR), AR (gene 367) (UniProt P10275); assay: NVS_NR_hAR: NovaScreen (NVS) Nuclear Receptor Binding Assay for human Androgen Receptor (AR) (AID 2283332)
How it was run: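 Radioligand competitive binding, scintillation read-out, in cell-free extract from LnCAP, measured 20 h after dosing. Screened first in duplicate at 25 uM, then concentration series for actives; activity fitted against DMSO.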

For Clc1cc(Cl)c2c(c1)N=C1CCCCCN1C2, which AC50 [1] is on record?
The AC50 was active: 7.31 µM.

What about the outcome [2] of the same compound?
Its outcome is “inactive”.

With CC[C@@H]1C[C@H](N(Cc2cc(C(F)(F)F)cc(C(F)(F)F)c2)C(C)=O)c2cc(C(F)(F)F)ccc2N1C(=O)OC(C)C as the compound, how does the outcome [3] read?
The outcome was “inactive”.

What about the AC50 [4] of the same compound?
The AC50 was inconclusive: 0.216 µM.

For C[C@@H]1C[C@H]2[C@@H]3CCC4=CC(=O)C=C[C@]4(C)[C@@]3(F)[C@@H](O)C[C@]2(C)[C@@]1(O)C(=O)COP(=O)(O)O, which outcome [3] is on record?
Its outcome is “inactive”.

What about the AC50 [5] of the same compound?
Its AC50 is inconclusive: 0.0689 µM.

Which AC50 [5] does the source give for Cc1ccc(C(C)(C)C)cc1 here?
The AC50 was inconclusive: 4.96 µM.

Which AC50 [1] does the source give for N[C@@H](Cc1cc(I)c(Oc2ccc(O)c(I)c2)c(I)c1)C(=O)O here?
Its AC50 is inconclusive: 0.163 µM.

Which results are given for O=C1CCC(C2CCCCC2)CC1?
AC50 [3]: inconclusive: 25 µM; outcome [5]: inactive

Which AC50 [5] does the source give for COc1ccc2[nH]cc(CCNC(C)=O)c2c1 here?
The AC50 was inconclusive: 0.483 µM.

Which AC50 [6] does the source give for CN(C)C(=O)C1(N2CCCCC2)CCN(CC[C@@]2(c3ccc(Cl)c(Cl)c3)CN(C(=O)c3ccccc3)CCO2)CC1 here?
Its AC50 is active: 4.68 µM.

And the AC50 [4]?
Its AC50 is active: 8.74 µM.

And the outcome [7]?
The outcome was “inactive”.

For CN(C)CCOC(c1ccccc1)c1ccccc1, which AC50 [2] is on record?
The AC50 was active: 5.8 µM.

Which AC50 [2] does the source give for O=C1C=CC(=O)N1c1ccc(Cc2ccc(N3C(=O)C=CC3=O)cc2)cc1 here?
The AC50 was inconclusive: 4.96 µM.

With CS(=O)(=O)OCCCCOS(C)(=O)=O as the compound, how does the AC50 [2] read?
Its AC50 is inconclusive: 25 µM.

With C[C@]12CC[C@@H]3c4ccc(O)cc4C[C@@H](CCCCCCCCCS(=O)CCCC(F)(F)C(F)(F)F)[C@H]3[C@@H]1CC[C@@H]2O (stereo partly specified) as the compound, how does the outcome [5] read?
Its outcome is “inactive”.

What about the AC50 [8] of the same compound?
Its AC50 is inconclusive: 4200 nM.

What about the outcome [8] of the same compound?
Its outcome is “inactive”.

Which AC50 [8] does the source give for N#CSCSc1nc2ccccc2s1 here?
Its AC50 is inconclusive: 990 nM.

Which outcome [2] does the source give for CCCCCCCCN(C)CCCCCCCC here?
The outcome was “inactive”.

For CCCCCCCCC(C)=O, which AC50 [8] is on record?
Its AC50 is inconclusive: 51.1 nM.

Which AC50 [5] does the source give for CCCCCC(C)OC(=O)COc1ccc(Cl)c2cccnc12 (stereo unspecified) here?
Its AC50 is inconclusive: 0.199 µM.

With O=P(c1ccccc1)(c1ccccc1)c1ccccc1 as the compound, how does the outcome [2] read?
Its outcome is “inactive”.

For CCCCOC(=O)CCCCCCCCC(=O)OCCCC, which AC50 [4] is on record?
The AC50 was inconclusive: 4.01 µM.

Which outcome [8] does the source give for CCN(CC)CCOc1ccc(C(=C(Cl)c2ccccc2)c2ccccc2)cc1 here?
Its outcome is “inactive”.

With CNC(=S)NN as the compound, how does the AC50 [8] read?
The AC50 was inconclusive: 420 nM.

Which AC50 [8] does the source give for Oc1ccc(Cl)cc1Cc1cc(Cl)ccc1O here?
Its AC50 is inconclusive: 43900 nM.

Which AC50 [2] does the source give for S=P(N1CC1)(N1CC1)N1CC1 here?
Its AC50 is inconclusive: 0.111 µM.

For CC(C)CCCCCCc1ccc(O)cc1, which AC50 [8] is on record?
The AC50 was inconclusive: 37.1 nM and inconclusive: 42.3 µM.

What does the source list for CC1(C)C(C=C(Cl)Cl)C1C(=O)OCc1cccc(Oc2ccccc2)c1 (stereo unspecified)?
outcome [5]: inactive; AC50 [9]: inconclusive: 25 µM

For CCCc1cc(=O)[nH]c(=S)[nH]1, which AC50 [7] is on record?
Its AC50 is inconclusive: 25 µM.

Which AC50 [9] does the source give for CN(C[C@@H](CC[N+]12CCC(C3CCCCC3)(CC1)CC2)c1ccc(Cl)c(Cl)c1)C(=O)c1cc(C(F)(F)F)cc(C(F)(F)F)c1 here?
Its AC50 is inconclusive: 25 µM.

With c1ccc2c(c1)Cc1ccccc1-2 as the compound, how does the AC50 [4] read?
The AC50 was inconclusive: 0.273 µM.

With c1ccc(C[P+](c2ccccc2)(c2ccccc2)c2ccccc2)cc1 as the compound, how does the AC50 [2] read?
Its AC50 is active: 4.8 µM.

Which AC50 [5] does the source give for O=C1c2ccccc2C(=O)N1SC1CCCCC1 here?
The AC50 was inconclusive: 25 µM.

What does the source list for CC1COc2ccccc2N1C(=O)C(Cl)Cl (stereo unspecified)?
outcome [5]: inactive; outcome [2]: inactive

For CCCCCC1C(=O)CCC1CC(=O)OC (stereo unspecified), which AC50 [5] is on record?
Its AC50 is inconclusive: 0.597 µM.

What about the outcome [2] of the same compound?
Its outcome is “inactive”.

For CCCCCCCCCCO, which AC50 [8] is on record?
Its AC50 is inconclusive: 4960 nM.

For CCCCCCCCOC(=O)c1ccc(O)cc1, which AC50 [8] is on record?
Its AC50 is inconclusive: 220 nM.

Which AC50 [7] does the source give for OCC(CO)n1cnc(-c2ccc(F)cc2)c1-c1ccnc(Oc2ccccc2)n1 here?
The AC50 was inconclusive: 2.08 µM.

What does the source list for CC(C)C(=O)Nc1ccc([N+](=O)[O-])c(C(F)(F)F)c1?
outcome [8]: inactive; outcome [2]: inactive

With NCCCN1CCOCC1 as the compound, how does the outcome [5] read?
The outcome was “inactive”.

Which AC50 [5] does the source give for CCCCCCCCO[C@@H]1O[C@H](CO)[C@@H](O)[C@H](O)[C@H]1O here?
The AC50 was inconclusive: 4.79 µM.

Which AC50 [7] does the source give for NC(=O)NN=Cc1ccc([N+](=O)[O-])o1 here?
Its AC50 is inconclusive: 25 µM.

Which outcome [5] does the source give for C#C[C@]1(O)CC[C@H]2[C@@H]3CCc4cc(OC)ccc4[C@H]3CC[C@@]21C here?
Its outcome is “inactive”.

And the AC50 [8]?
Its AC50 is inconclusive: 25000 nM.

Which AC50 [8] does the source give for COCCOCCC[Si](C)(O[Si](C)(C)C)O[Si](C)(C)C here?
The AC50 was inconclusive: 300 nM.

With CCOC(=O)COc1cc(-n2ncc(C(F)(F)F)c(C)c2=O)c(F)cc1Cl as the compound, how does the AC50 [8] read?
Its AC50 is inconclusive: 65.2 nM.

Which outcome [7] does the source give for OC12N=C(c3ccccc3)SC1Cc1cc(Cl)ccc12 (stereo unspecified) here?
Its outcome is “inactive”.

With NC(=O)NNC(N)=O as the compound, how does the AC50 [2] read?
The AC50 was inconclusive: 4.96 µM.

For COCCOC[C@H](CC1(C(=O)NC2CCC(C(=O)O)CC2)CCCC1)C(=O)Oc1ccc2c(c1)CCC2 (stereo partly specified), which AC50 [4] is on record?
The AC50 was inconclusive: 0.52 µM.

Which AC50 [9] does the source give for O=C1c2c(O)ccc(Nc3ccc(CCO)cc3)c2C(=O)c2c([N+](=O)[O-])ccc(O)c21 here?
Its AC50 is active: 13.8 µM.

With N#Cc1ccc(C2CCCc3cncn32)cc1 (stereo unspecified) as the compound, how does the AC50 [5] read?
Its AC50 is inconclusive: 0.228 µM.

For COc1cccc([C@H](O)C2CCN(CCc3ccc(F)cc3)CC2)c1OC, which AC50 [2] is on record?
Its AC50 is active: 1.35 µM.

With CC[C@H](c1ccc(O)cc1)[C@@H](CC)c1ccc(O)cc1 as the compound, how does the outcome [9] read?
Its outcome is “inactive”.
